Experimental data published in article PMC4383067.
Results are given in words; binding and its absence hold for the method and conditions named. Some entries that bind do so weakly or less than the wild type.

Columns and labels:
[1] = biological target: Full-length human PrP (monomeric, recombinant) (human) (UniProt P04156); assay: cross-linking; both purified
[2] = biological target: Amyloid fibrils of full-length human PrP (human) (UniProt P04156); assay: co-sedimentation; both purified
[3] = biological target: Amyloid fibrils of full-length human PrP (human) (UniProt P04156); assay: immunogold electron microscopy; both purified

Measured: binding

Full-length human acetylcholinesterase (dimeric, recombinant) (from UniProt P22303 32-614) (enzyme)
binds: all assays above
